Among the data in publication PMC6199344 are binding values, retold here.

Amino acid sequences for entries named in this document (tags omitted).
UniProt Q13148: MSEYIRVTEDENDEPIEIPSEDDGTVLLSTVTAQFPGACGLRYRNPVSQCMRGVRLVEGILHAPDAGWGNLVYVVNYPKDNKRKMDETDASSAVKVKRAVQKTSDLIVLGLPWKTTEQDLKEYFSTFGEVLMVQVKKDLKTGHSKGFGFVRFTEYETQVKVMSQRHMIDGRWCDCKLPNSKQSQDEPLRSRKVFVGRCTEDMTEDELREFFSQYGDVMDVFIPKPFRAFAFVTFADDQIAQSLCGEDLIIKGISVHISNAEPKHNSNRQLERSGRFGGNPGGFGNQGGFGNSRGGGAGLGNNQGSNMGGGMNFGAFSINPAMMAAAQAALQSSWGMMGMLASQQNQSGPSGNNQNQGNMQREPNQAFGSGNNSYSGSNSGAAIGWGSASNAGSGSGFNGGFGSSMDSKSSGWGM
UniProt O00472: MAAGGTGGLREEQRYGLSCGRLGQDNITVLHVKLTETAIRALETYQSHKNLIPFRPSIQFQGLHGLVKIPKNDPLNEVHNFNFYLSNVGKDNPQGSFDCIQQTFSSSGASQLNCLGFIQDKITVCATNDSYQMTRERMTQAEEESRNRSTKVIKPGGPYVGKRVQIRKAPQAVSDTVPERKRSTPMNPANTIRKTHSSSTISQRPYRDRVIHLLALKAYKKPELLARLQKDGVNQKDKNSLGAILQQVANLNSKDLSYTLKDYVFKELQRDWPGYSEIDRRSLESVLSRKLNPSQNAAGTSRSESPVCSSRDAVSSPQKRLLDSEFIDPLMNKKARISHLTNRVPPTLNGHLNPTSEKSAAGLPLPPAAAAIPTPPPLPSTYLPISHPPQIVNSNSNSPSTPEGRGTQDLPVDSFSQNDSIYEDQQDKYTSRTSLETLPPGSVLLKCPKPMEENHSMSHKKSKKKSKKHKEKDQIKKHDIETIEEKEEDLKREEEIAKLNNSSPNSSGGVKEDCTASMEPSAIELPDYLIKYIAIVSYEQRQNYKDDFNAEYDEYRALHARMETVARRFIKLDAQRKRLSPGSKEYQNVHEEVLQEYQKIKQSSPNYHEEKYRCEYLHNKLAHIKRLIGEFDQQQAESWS

These are yes or no findings as the source states them, for the method shown. Binding seen in cells or lysates may run through a third protein. Some entries that bind do so weakly or less than the wild type.

The target of this assay is TAR DNA-binding protein 43 (human (endogenous in HEK293)) (UniProt Q13148). As to the kind of experiment: co-IP; endogenous proteins, nuclear extract of HEK293 TetOn-GFP cells without doxycycline; anti-TDP-43 mAb 5028 or mouse IgG control on Dynabeads Protein G, 4 °C overnight, Pierce IP lysis buffer; immunoblot for ELL, ELL2, TDP-43. (A western blot detects proteins with antibodies after separation by electrophoresis.)

Take ELL2 (from UniProt O00472 1-640): the binding result is listed as “binds”.
